Results deposited as PubChem BioAssay AID1259425 (University of Nebraska Medical Center, 2018)
In all, the deposit lists about 14,000 reagents; shown is a random part of them. Further read-outs or replicates are left out here. Not given: the time to read-out.

Screen: 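Seek colon cancer weak points whose silencing resembles KSR1 loss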 (primary screen)
System: HCT116 human colon cancer cells
Reagents: siRNA pool against human genes, 50 nM siRNA
Detection: 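After 50 nM siRNA pool, branched-DNA assay measures six marker transcripts per well, minus blank, normalised to the geometric mean of two housekeeping transcripts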
Direction: BNIP3L mRNA: higher = more BNIP3L transcript after knockdown; NDRG1 mRNA: higher = more NDRG1 transcript after knockdown

Depletion of ZNF155 gave: BNIP3L mRNA, set 1 = 0.142; NDRG1 mRNA, set 1 = 0.145.
For MAU2, the values are BNIP3L mRNA, set 1 = 0.101; NDRG1 mRNA, set 1 = 0.448.
With knock-down of MAGOH, the record shows BNIP3L mRNA, set 1 = 0.107; NDRG1 mRNA, set 1 = 0.109.
ATXN2L scored BNIP3L mRNA, set 1 = 0.0775; NDRG1 mRNA, set 1 = 0.114.
Silencing of APOBEC3D resulted in: BNIP3L mRNA, set 1 = 0.12; NDRG1 mRNA, set 1 = 0.18.
NPAS4 gave BNIP3L mRNA, set 1 = 0.0915; NDRG1 mRNA, set 1 = 0.132.

A portion taken from the entries so far:
MAU2 — BNIP3L mRNA, set 1 = 0.101; NDRG1 mRNA, set 1 = 0.448
MAGOH — BNIP3L mRNA, set 1 = 0.107; NDRG1 mRNA, set 1 = 0.109

The results go on.
Against OSBPL10, the values are BNIP3L mRNA, set 1 = 0.142; NDRG1 mRNA, set 1 = 0.305.
Silencing of RLN1 came out at: BNIP3L mRNA, set 1 = 0.062; NDRG1 mRNA, set 1 = 0.0784.
MMP17 gave BNIP3L mRNA, set 1 = 0.0641; NDRG1 mRNA, set 1 = 0.132.
Silencing of DPH2 came out at: BNIP3L mRNA, set 1 = 0.14; NDRG1 mRNA, set 1 = 0.24.
After knock-down of DBF4B, the record shows BNIP3L mRNA, set 1 = 0.128; NDRG1 mRNA, set 1 = 0.193.
Knock-down of ADAR came out at: BNIP3L mRNA, set 1 = 0.0712; NDRG1 mRNA, set 1 = 0.402.
SLC71A1 scored BNIP3L mRNA, set 1 = 0.132; NDRG1 mRNA, set 1 = 0.0947.
ZC3H12A gave BNIP3L mRNA, set 1 = 0.18; NDRG1 mRNA, set 1 = 0.422.
Depletion of CDK11A resulted in: BNIP3L mRNA, set 1 = 0.0698; NDRG1 mRNA, set 1 = 0.116.
LMOD3 scored BNIP3L mRNA, set 1 = 0.162; NDRG1 mRNA, set 1 = 0.12.
After knock-down of AGER, the screen gave BNIP3L mRNA, set 1 = 0.119; NDRG1 mRNA, set 1 = 0.284.
Silencing of BTF3P11 came out at: BNIP3L mRNA, set 1 = 0.042; NDRG1 mRNA, set 1 = 0.137.
Knock-down of COIL came out at: BNIP3L mRNA, set 1 = 0.0818; NDRG1 mRNA, set 1 = 0.161.
